Assay results published in PubChem BioAssay AID1794837 (National Center for Advancing Translational Sciences (NCATS), 2023).
These results got no clear call from the source, so the numbers are uncertain. Calls follow the shape of the dose curve; as a rule, active = well fitted curve in the direction sought with a large enough effect; inconclusive = small, poorly fitted or top-dose-only effect, or another doubt; inactive = no such curve, though single readings can be large or run the other way.

Test: Viability counterscreen for antagonist of constitutive androstane receptor (CAR) against the NCATS DSHEA and TCM libraries
Details: CAR reporter cell line viability counterscreen, qHTS
From the text: Assay Development and Screening Technology Laboratory (ADST)
National Center for Advancing Translational Sciences (NCATS), Rockville, MD
National Institute of Health (NIH), Bethesda, Maryland
Dietary Supplements and Natural Products have minor oversight of their safety and efficacy. We assembled a collection of Dietary Supplements and Natural Products (DSNP) as well as Traditional Chinese Medicinal (TCM) Plant extracts, which were screened against an in vitro panel of assays, including a liver cytochrome p450 enzyme panel, CAR/PXR signaling pathways, and P-gp transporter assays, to assess their activity. This pipeline facilitated the interrogation of Natural Product-Drug Interaction (NaPDI) through prominent metabolizing pathways. In addition, we compared the activity profiles of the DSNP/TCM substances with those of an approved drug collection. […] Overall, we highlight four significant bioactivity profiles (measured by p-values) as examples of this prediction. […]
8; Detector 1; Fluorescence intensity; ViewLux plate reader (excitation 405 nm, emission 540 nm). […]
11; Detector 2; Luminescence intensity; ViewLux. […]
8. Fluorescence intensity (Ex/Em = 405 nm/540 nm) is obtained using the ViewLux plate reader to determine cell viability. […]
10. Luminescence intensity is read using the ViewLux detector. […]

C/C1=C2N=C(/C=C3N=C(/C(C)=C4\[N-][C@@](C)([C@@H]5N=C1[C@](C)(CCC(=O)NC[C@@H](C)OP(=O)([O-])O[C@H]1[C@@H](O)[C@@H](n6cnc7cc(C)c(C)cc76)O[C@@H]1CO)[C@H]5CC(N)=O)[C@@](C)(CC(N)=O)[C@@H]4CCC(N)=O)[C@@](C)(CC(N)=O)[C@@H]\3CCC(N)=O)C(C)(C)[C@@H]/2CCC(N)=O.[C-]#N.[Co+3]
Potency: inconclusive: 31.6 µM
